{
  "source": "patent US7927581B2",
  "about": "(Factor 1A, LLC, priority 2001, dated 2011)",
  "experiment": "general procedure: Fmoc solid-phase peptide synthesis; 1,3-bis-(aminomethyl)-benzene trityl NovaSyn TGT resin (diaminotrityl resin)",
  "conditions": "whole synthesis, scale of the general procedure 3.39 g resin (measured substitution=0.59 mmol)",
  "data": [
    {"substance": "H2N-Leu-Pro-Cys-Asp-Tyr-Tyr-Gly-Thr-Cys-Bip-Asp-CO—NHCH2C6H4CH2NH2", "values": [
      {"measurement": "final purity (method not given)", "result": "98-100%"}
    ]}
  ]
}
